The source of these data is article PMC8384837.

Residue numbers refer to the chain shown, from its start. Some of the results follow. For some of these results: At the low end of the ranking the order means little. For some of these results: The exact form of the protein is not confirmed.

Common to all, as to details: yeast three-hybrid, YBZ-1, SC-Leu-His + 0.5 mM 3-AT, 4 days
Assay [1] addresses T1, PUM1 PUF domain R1-QFR R2-VFQ R7-NPG S863Q + R864F + Q867R + N899V + Y900F + S1079N + N1080P + E1083G (UniProt Q14671).
T1 sequence: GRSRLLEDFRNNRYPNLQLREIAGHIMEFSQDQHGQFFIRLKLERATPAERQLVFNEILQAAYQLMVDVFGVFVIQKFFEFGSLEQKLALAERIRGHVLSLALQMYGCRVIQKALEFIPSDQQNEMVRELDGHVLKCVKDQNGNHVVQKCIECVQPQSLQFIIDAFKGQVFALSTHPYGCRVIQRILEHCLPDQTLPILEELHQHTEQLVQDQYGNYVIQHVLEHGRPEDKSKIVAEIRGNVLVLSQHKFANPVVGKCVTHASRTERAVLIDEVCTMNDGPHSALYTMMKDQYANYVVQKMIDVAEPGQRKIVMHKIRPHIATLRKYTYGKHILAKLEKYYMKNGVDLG

Assay [2] addresses T2, PUM1 PUF domain R3-THE R4-TFR C935T + R936H + Q939E + N971T + H972F + Q975R (UniProt Q14671).
T2 sequence: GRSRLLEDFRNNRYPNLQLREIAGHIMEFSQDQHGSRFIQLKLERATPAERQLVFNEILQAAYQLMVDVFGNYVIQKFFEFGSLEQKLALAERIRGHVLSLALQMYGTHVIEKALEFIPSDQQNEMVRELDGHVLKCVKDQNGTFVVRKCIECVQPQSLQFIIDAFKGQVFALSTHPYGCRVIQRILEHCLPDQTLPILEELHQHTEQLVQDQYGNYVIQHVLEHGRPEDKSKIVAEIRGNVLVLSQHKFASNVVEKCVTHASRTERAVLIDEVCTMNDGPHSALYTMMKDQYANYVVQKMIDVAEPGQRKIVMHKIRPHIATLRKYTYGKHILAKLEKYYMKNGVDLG

The target of assay [3] is T3, PUM1 PUF domain R3-THE R4-TFR R7-NPG C935T + R936H + Q939E + N971T + H972F + Q975R + S1079N + N1080P + E1083G (Homo sapiens) (UniProt Q14671).
T3 sequence: T2 sequence with S252N, N253P, E256G

The target of assay [4] is T4, PUM1 PUF domain R3-THE R4-TFR R7-NPG C935T + R936H + Q939E + N971T + H972F + Q975R + S1079N + N1080P + E1083G (UniProt Q14671).
T4 sequence: T2 sequence with S252N, N253P, E256G

The target of assay [5] is T5, PUM1 PUF domain R5-PHQ R6-SWD C1007P + R1008H + N1043S + Y1044W + Q1047D (UniProt Q14671).
T5 sequence: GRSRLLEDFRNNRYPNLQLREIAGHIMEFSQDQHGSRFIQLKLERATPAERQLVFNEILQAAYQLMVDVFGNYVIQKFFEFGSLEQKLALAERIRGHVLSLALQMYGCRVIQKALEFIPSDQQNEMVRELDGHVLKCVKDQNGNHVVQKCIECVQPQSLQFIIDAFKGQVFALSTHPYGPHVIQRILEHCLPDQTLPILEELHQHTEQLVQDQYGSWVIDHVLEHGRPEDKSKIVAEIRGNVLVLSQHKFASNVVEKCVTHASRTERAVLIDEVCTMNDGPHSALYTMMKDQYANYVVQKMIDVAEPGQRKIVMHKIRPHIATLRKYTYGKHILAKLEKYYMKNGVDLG

Assay [6] deals with T6, PUM1 PUF domain R6-SWD R7-NPG N1043S + Y1044W + Q1047D + S1079N + N1080P + E1083G (Homo sapiens) (UniProt Q14671).
T6 sequence: T5 sequence with P180C, H181R, S252N, N253P, E256G

In assay [7] the target is T7, PUM1 PUF domain R6-SWD R7-NPG N1043S + Y1044W + Q1047D + S1079N + N1080P + E1083G (UniProt Q14671).
T7 sequence: T5 sequence with P180C, H181R, S252N, N253P, E256G

In the case of “GGCUAGAACUAGUGGAUCCCCCGGCGCCCGGCGGCUCGAGCCCGGGUAAGCGUUAGUUGUCUGCAUGCCGCCGGGCGCCAUGCCUGCAGGUCGACUCUAGAAAACAUG”, the figures for the binding signal (log2 enrichment (interaction score)) in assay [1] and in assay [2] were -6.25 and -7.07, respectively.

Regarding “GGCUAGAACUAGUGGAUCCCCCGGCGCCCGGCGGCUCGAGCCCGGGUAAGUUUAUGAUGUCUGCAUGCCGCCGGGCGCCAUGCCUGCAGGUCGACUCUAGAAAACAUG”, the figures for the binding signal (log2 enrichment (interaction score)) in assay [1], in assay [2] and in assay [3] were below -5.58, -7.35 and below -0.63, respectively.

As to “GGCUAGAACUAGUGGAUCCCCCGGCGCCCGGCGGCUCGAGCCCGGGUAAGUGUAAGAAGUCUGCAUGCCGCCGGGCGCCAUGCCUGCAGGUCGACUCUAGAAAACAUG”, the binding signal (log2 enrichment (interaction score)) in assay [1] is -6.35; in assay [2], -8.4; in assay [4] it was -2.9; in assay [5] it was below -8.34; in assay [6], -0.47.

On to “GGCUAGAACUAGUGGAUCCCCCGGCGCCCGGCGGCUCGAGCCCGGGUAAGUAUCCUUAGUCUGCAUGCCGCCGGGCGCCAUGCCUGCAGGUCGACUCUAGAAAACAUG”, for which the binding signal (log2 enrichment (interaction score)) in assay [1] was -7.1; in assay [2] it was below -7.47.

For “GGCUAGAACUAGUGGAUCCCCCGGCGCCCGGCGGCUCGAGCCCGGGUAAGUGUAAACCGUCUGCAUGCCGCCGGGCGCCAUGCCUGCAGGUCGACUCUAGAAAACAUG”, the binding signal (log2 enrichment (interaction score)) is -3.18 in assay [1], below -7.14 in assay [2], below -1.16 in assay [3] and -8.7 in assay [5].

“GGCUAGAACUAGUGGAUCCCCCGGCGCCCGGCGGCUCGAGCCCGGGUAAGUUACCAUAGUCUGCAUGCCGCCGGGCGCCAUGCCUGCAGGUCGACUCUAGAAAACAUG”: the figures for the binding signal (log2 enrichment (interaction score)) in assay [1] and in assay [2] were -5.78 and -5.97, respectively.

With “GGCUAGAACUAGUGGAUCCCCCGGCGCCCGGCGGCUCGAGCCCGGGUAAGUUUCCAUAGUCUGCAUGCCGCCGGGCGCCAUGCCUGCAGGUCGACUCUAGAAAACAUG”, the binding signal (log2 enrichment (interaction score)) was -5.25 in assay [1], -6.56 in assay [2], -2.45 in assay [4] and -7.14 in assay [5].

“GGCUAGAACUAGUGGAUCCCCCGGCGCCCGGCGGCUCGAGCCCGGGUAAGUCGACGAAGUCUGCAUGCCGCCGGGCGCCAUGCCUGCAGGUCGACUCUAGAAAACAUG”: the binding signal (log2 enrichment (interaction score)) in assay [1] was -4.37; in assay [2], -7.78; in assay [5] it was below -8.39.

Take “GGCUAGAACUAGUGGAUCCCCCGGCGCCCGGCGGCUCGAGCCCGGGUAAGUCUAAGUCGUCUGCAUGCCGCCGGGCGCCAUGCCUGCAGGUCGACUCUAGAAAACAUG”: the binding signal (log2 enrichment (interaction score)) in assay [1] is -5.66; in assay [2], below -6.27; in assay [5], -8.31.

Take “GGCUAGAACUAGUGGAUCCCCCGGCGCCCGGCGGCUCGAGCCCGGGUAAGUGGAAAGAGUCUGCAUGCCGCCGGGCGCCAUGCCUGCAGGUCGACUCUAGAAAACAUG”: the binding signal (log2 enrichment (interaction score)) was below -6.97 in assay [1], -7.79 in assay [2] and -6.13 in assay [5].

Take “GGCUAGAACUAGUGGAUCCCCCGGCGCCCGGCGGCUCGAGCCCGGGUAAGUAUAAAAAGUCUGCAUGCCGCCGGGCGCCAUGCCUGCAGGUCGACUCUAGAAAACAUG”: the binding signal (log2 enrichment (interaction score)) is -5.04 in assay [1], below -6.61 in assay [2] and below -7.84 in assay [5].

In the case of “GGCUAGAACUAGUGGAUCCCCCGGCGCCCGGCGGCUCGAGCCCGGGUAAGUGCAAGAUGUCUGCAUGCCGCCGGGCGCCAUGCCUGCAGGUCGACUCUAGAAAACAUG”, the binding signal (log2 enrichment (interaction score)) in assay [1] is -5.68; in assay [2], -6.69; in assay [5], -8.54.

On to “GGCUAGAACUAGUGGAUCCCCCGGCGCCCGGCGGCUCGAGCCCGGGUAAGAUGUAGUAGUCUGCAUGCCGCCGGGCGCCAUGCCUGCAGGUCGACUCUAGAAAACAUG”, for which the binding signal (log2 enrichment (interaction score)) in assay [1] is -5.81; in assay [2], below -6.85; in assay [5], -7.18.

In the case of “GGCUAGAACUAGUGGAUCCCCCGGCGCCCGGCGGCUCGAGCCCGGGUAAGAGGAAGUAGUCUGCAUGCCGCCGGGCGCCAUGCCUGCAGGUCGACUCUAGAAAACAUG”, the binding signal (log2 enrichment (interaction score)) in assay [1] was -4.37; in assay [2] it was below -6.89; in assay [5] it was -7.77; in assay [7], below -2.96.

Regarding “GGCUAGAACUAGUGGAUCCCCCGGCGCCCGGCGGCUCGAGCCCGGGUAAGUCUACGCAGUCUGCAUGCCGCCGGGCGCCAUGCCUGCAGGUCGACUCUAGAAAACAUG”, the values for the binding signal (log2 enrichment (interaction score)) in assay [1], in assay [2] and in assay [6] were below -5.88, -6.11 and -0.61, respectively.

In the case of “GGCUAGAACUAGUGGAUCCCCCGGCGCCCGGCGGCUCGAGCCCGGGUAAGCAUAAGUAGUCUGCAUGCCGCCGGGCGCCAUGCCUGCAGGUCGACUCUAGAAAACAUG”, the binding signal (log2 enrichment (interaction score)) in assay [1] is -4.29; in assay [2], -6.84; in assay [5], below -7.85.

Turning to “GGCUAGAACUAGUGGAUCCCCCGGCGCCCGGCGGCUCGAGCCCGGGUAAGUUUACGAAGUCUGCAUGCCGCCGGGCGCCAUGCCUGCAGGUCGACUCUAGAAAACAUG”, the binding signal (log2 enrichment (interaction score)) in assay [1] was -5.93; in assay [2], -6.4; in assay [6] it was -1.24.

With “GGCUAGAACUAGUGGAUCCCCCGGCGCCCGGCGGCUCGAGCCCGGGUAAGUAGAAAUCGUCUGCAUGCCGCCGGGCGCCAUGCCUGCAGGUCGACUCUAGAAAACAUG”, the binding signal (log2 enrichment (interaction score)) was -5.78 in assay [1], -6.72 in assay [2], -6.83 in assay [5] and -0.93 in assay [6].

As to “GGCUAGAACUAGUGGAUCCCCCGGCGCCCGGCGGCUCGAGCCCGGGUAAGUCGUCAUAGUCUGCAUGCCGCCGGGCGCCAUGCCUGCAGGUCGACUCUAGAAAACAUG”, the binding signal (log2 enrichment (interaction score)) is below -6.34 in assay [1], -7.54 in assay [2], -7.59 in assay [5] and -0.65 in assay [6].

Turning to “GGCUAGAACUAGUGGAUCCCCCGGCGCCCGGCGGCUCGAGCCCGGGUAAGUUAAAGUAGUCUGCAUGCCGCCGGGCGCCAUGCCUGCAGGUCGACUCUAGAAAACAUG”, the figures for the binding signal (log2 enrichment (interaction score)) in assay [1], in assay [2] and in assay [5] were below -6.44, -7.27 and -7.74, respectively.

As to “GGCUAGAACUAGUGGAUCCCCCGGCGCCCGGCGGCUCGAGCCCGGGUAAGUCUAAAAAGUCUGCAUGCCGCCGGGCGCCAUGCCUGCAGGUCGACUCUAGAAAACAUG”, the binding signal (log2 enrichment (interaction score)) in assay [1] was -5.52; in assay [2], -6.8; in assay [5], -9.26.
